In article PMC4526116:
These are yes or no findings as the source states them, for the method shown. Binding seen in cells or lysates may run through a third protein. Some binding calls cover weakened binding; strength is not graded here.

Target: endogenous UVRAG (wild type) of 293T cells (human (endogenous in 293T)) (UniProt Q9P2Y5)
Assay: co-IP; 293T transfected with increasing amounts of Flag-UVRAG^FS and treated with IR (5 Gy); whole-cell lysates immunoprecipitated with anti-DNA-PKcs or anti-UVRAG, immunoblotted with the indicated antibodies

binding: binds
Substance: Ku70/Ku80 (from UniProt P12956 1-609; P13010 1-732) (complex)
